Structures are written as SMILES.

The record followed here is patent US7883730B2, “Rumen protected lysine” (Zinpro Corporation, priority 2007, dated 2011).

The subject of this data set is Lactating Holstein Dairy Cows. As to the kind of experiment: Feeding evaluation: lactation responses to N-Benzylidene-L-Lysine. In kind it is in vivo. Conditions: control diet plus 40 g Lys from N-Benzylidene-L-Lysine, 14 days. The source says: Evaluation of Feeding N-Benzylidene-L-Lysine Using Lactating Holstein Dairy Cows
All cows received the same base diet. Cows were assigned to one of two treatments: (1) control, (2) control+N-Benzylidene-L-Lysine (TrTA). N-Benzylidene-L-Lysine was supplemented at a rate to supply 40 g of Lys when cows consumed 53.0 lb dry matter/d. The control diet was formulated to be deficient of lysine. “P” refers to the probability value (p-value).

On to `NCCCC[C@H](N=Cc1ccccc1)C(=O)O` [Trt A, N-Benzylidene-L-Lysine], for which the DMI is listed as 53.1 lbs/d.
